{"sequences": {"note": "Amino acid sequences for entries named in this document (tags omitted).", "UniProt P36888, whole entry": "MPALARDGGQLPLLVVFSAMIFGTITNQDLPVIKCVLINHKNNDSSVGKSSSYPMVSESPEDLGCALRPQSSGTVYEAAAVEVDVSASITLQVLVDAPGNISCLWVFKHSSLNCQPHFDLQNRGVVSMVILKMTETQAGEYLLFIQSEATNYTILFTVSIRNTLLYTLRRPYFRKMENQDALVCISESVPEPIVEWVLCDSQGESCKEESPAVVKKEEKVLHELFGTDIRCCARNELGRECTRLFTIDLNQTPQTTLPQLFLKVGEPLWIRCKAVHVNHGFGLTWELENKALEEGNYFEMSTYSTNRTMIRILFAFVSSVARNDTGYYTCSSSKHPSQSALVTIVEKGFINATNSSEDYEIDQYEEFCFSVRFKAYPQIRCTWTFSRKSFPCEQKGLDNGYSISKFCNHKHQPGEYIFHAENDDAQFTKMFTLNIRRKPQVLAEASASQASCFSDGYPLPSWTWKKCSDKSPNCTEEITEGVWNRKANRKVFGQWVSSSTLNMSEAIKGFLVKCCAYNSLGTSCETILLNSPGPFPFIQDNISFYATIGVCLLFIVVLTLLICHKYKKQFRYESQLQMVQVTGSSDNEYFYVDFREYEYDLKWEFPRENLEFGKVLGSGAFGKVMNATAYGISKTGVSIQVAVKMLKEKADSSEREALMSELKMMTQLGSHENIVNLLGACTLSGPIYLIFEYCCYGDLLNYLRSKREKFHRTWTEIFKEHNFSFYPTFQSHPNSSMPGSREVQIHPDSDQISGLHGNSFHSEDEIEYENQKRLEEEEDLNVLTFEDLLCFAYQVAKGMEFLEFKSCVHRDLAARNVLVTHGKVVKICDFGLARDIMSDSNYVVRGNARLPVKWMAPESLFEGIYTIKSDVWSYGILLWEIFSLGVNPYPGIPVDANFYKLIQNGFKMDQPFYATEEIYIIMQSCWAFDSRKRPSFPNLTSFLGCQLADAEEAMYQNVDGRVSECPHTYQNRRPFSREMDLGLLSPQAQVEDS"}, "source": "the supplement of paper PMC12823440", "about": "“Inhibitors supercharge kinase turnover through native proteolytic circuits” (Nature, 2025)", "note": "Counter-ions that a name gives are not always drawn. The list shows a part of the results. Hit calls seldom repeat between salt and free forms of one compound.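 Kinases, fused to nanoluciferase, were expressed in K562 cells; luminescence was measured every 4 h from 2 to 18 h as percent of control (DMSO = 100%, positive control = 0%). A time point is decreased if signal falls significantly (2 sigma). Hits were called by the authors by a rule that is not shown; the count of time points alone does not decide it.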", "data": [{"biological_target": "FLT3 (UniProt P36888)", "assay": "number of time points (of 5) at which kinase-Nluc abundance scored as decreased, DMSO-normalised (count); higher = more persistent destabilization", "settings": "K562; 2-18 h", "values": [{"smiles": "CCS(=O)(=O)c1ccc(Oc2cc(O[C@@H](C)CO)cc(C(=O)Nc3ccn(C)n3)c2)cn1", "note": "(10 µM)", "number of time points": 0}, {"smiles": "O=C1C(=Cc2ccc(O)c(O)c2)Oc2ccccc21", "note": "(2.5 µM)", "number of time points": 0}, {"smiles": "CN(C)CCCNc1ccn2ncc(-c3ccc4c(c3)OCO4)c2n1", "note": "(10 µM)", "number of time points": 0}, {"smiles": "COc1ccc(C(=O)c2cn(C(C)C)c3ncnc(N)c23)cc1NC(=O)Nc1ccc(Cl)cc1Cl", "note": "(10 µM)", "number of time points": 0}, {"smiles": "C[C@@H]1CN(Cc2cn[nH]c2-c2ccc(C#N)cc2)CCN1c1ccc(C(F)(F)F)cn1", "note": "(2.5 µM)", "number of time points": 0}, {"smiles": "O=C1c2c(O)cc(O)cc2O[C@H](c2cc(O)c(O)c(O)c2)[C@H]1O", "note": "[Dihydromyricetin] (10 µM)", "number of time points": 0}, {"smiles": "C=CC(=O)N[C@H]1CCOC[C@H]1Nc1ncc2cc(-c3c(Cl)c(OC)cc(OC)c3Cl)ccc2n1", "note": "[Fisogatinib] (10 µM)", "number of time points": 0}, {"smiles": "CC(C)(O)c1cc(Nc2cc(Oc3cn(C4CC4)nc3C3CCOCC3)ccn2)ccn1", "note": "(10 µM)", "number of time points": 0}, {"smiles": "CC[C@H](C)[C@@H]1NC(=O)[C@@H]2CCCN2C(=O)[C@@H]2CCCN2C(=O)[C@@H]2CCCN2C(=O)[C@H](CC(C)C)NC(=O)CNC(=O)CNC(=O)[C@H](Cc2ccccc2)NC1=O", "note": "[Heterophyllin B] (10 µM)", "number of time points": 0}, {"smiles": "COc1cc(-c2cnc(N)c(-c3ccc(NC(=O)c4cn(CC5CCOCC5)cc(-c5ccc(C)cn5)c4=O)cc3F)c2)ccc1OC[C@H]1COCCO1", "note": "[DS-1205b (free base)] (10 µM)", "number of time points": 0}, {"smiles": "C=CC(=O)Nc1cccc(Nc2nc(Nc3ccc(Oc4ccnc(C(=O)NC)c4)cc3)ncc2F)c1", "note": "(2.5 µM)", "number of time points": 0}, {"smiles": "COc1ccc(-c2cnc3c(-c4cccc5ncccc45)cnn3c2)cc1", "note": "(10 µM)", "number of time points": 0}, {"smiles": "Cc1c(Br)c(Br)c2c3c1nc(N1CCNCC1)n3CCC2", "note": "[SEL120-34A (monohydrochloride)] (2.5 µM)", "number of time points": 0}, {"smiles": "Cc1nc(Nc2ncc(C(=O)Nc3c(C)cccc3Cl)s2)cc(N2CCN(C(=O)CCCCCCC(=O)N[C@H](C(=O)N3C[C@H](O)C[C@H]3C(=O)NCc3ccc(-c4scnc4C)cc3)C(C)(C)C)CC2)n1", "note": "(2.5 µM)", "number of time points": 3}, {"smiles": "CC(=O)Nc1nc(C)c(-c2ccc(Cl)c(S(=O)(=O)NCCO)c2)s1", "note": "(10 µM)", "number of time points": 0}, {"smiles": "CC(C)n1nc(C#Cc2ccccc2)c2c(N)ncnc21", "note": "(10 µM)", "number of time points": 0}, {"smiles": "COc1cc(OC)c(/C=C/S(=O)(=O)Cc2ccc(OC)c(NCC(=O)O)c2)c(OC)c1", "note": "[Rigosertib (sodium)] (10 µM)", "number of time points": 1}, {"smiles": "CNC[C@@H](NC(=O)c1ccc(-c2nc([C@H]3CC[C@H](O)[C@@H](F)C3)cnc2N)cc1F)c1cc(F)cc(Br)c1", "note": "[Rineterkib] (10 µM)", "number of time points": 0}, {"smiles": "CCCC[C@H](CO)Nc1nc(NC)ncc1OC", "note": "[Interferon receptor inducer-1] (10 µM)", "number of time points": 0}, {"smiles": "CC(C)=C/C=C1\\O[C@@H]2CC(C)=CC(=O)[C@@H]2[C@]1(C)O", "note": "[Bisabolangelone] (10 µM)", "number of time points": 0}, {"smiles": "CCCCCC1CC1CC1CC1CCCCCCCC(=O)O", "note": "(stereo not drawn) (10 µM)", "number of time points": 0}, {"smiles": "CNC(=O)c1c(C)oc2cc(Oc3ncnc4cc(OC)c(OC)cc34)ccc12", "note": "[Fruquintinib] (10 µM)", "number of time points": 0}, {"smiles": "CC(C)(C)S(=O)(=O)c1cc2c(Nc3ccc4scnc4c3)ccnc2cc1OCCOCCOCCOCCOCC(=O)Nc1cccc2c1CN(C1CCC(=O)NC1=O)C2=O", "note": "(stereo not drawn) [PROTAC RIPK degrader-6] (10 µM)", "number of time points": 0}, {"smiles": "C[C@]1(O)C[C@@](N)(c2ccc(-c3nc4n(c3-c3ccccc3)COc3ccncc3-4)cc2)C1", "note": "[TAS-117 (hydrochloride)] (10 µM)", "number of time points": 0}, {"smiles": "CNC(=O)c1nnc(NC(=O)C2CC2)cc1Nc1cccc(-c2ncn(C)n2)c1OC", "note": "[Deucravacitinib] (10 µM)", "number of time points": 0}, {"smiles": "O=c1sn(-c2cccc3ccccc23)c(=O)n1Cc1ccccc1", "note": "[Tideglusib] (10 µM)", "number of time points": 0}, {"smiles": "C=CC(=O)Nc1cccc(Oc2nc(Nc3ccc(N4CCN(C)CC4)cc3)ncc2Cl)c1", "note": "(2.5 µM)", "number of time points": 0}, {"smiles": "CNC(=O)c1ccc(-c2cnc3ncc(Cc4ccc5ncccc5c4)n3n2)cc1F", "note": "[Capmatinib] (10 µM)", "number of time points": 0}, {"smiles": "CN(C)C(=O)c1cc2cnc(Nc3ccc(NC(=O)C4(C(=O)Nc5ccc(F)cc5)CC4)cc3)nc2n1C1CCCC1", "note": "(2 µM)", "number of time points": 0}, {"smiles": "Cn1cc(C2=C(c3c4n(c5ccccc35)CCC(CN)C4)C(=O)NC2=O)c2ccccc21", "note": "(stereo not drawn) [Bisindolylmaleimide X (hydrochloride)] (2.5 µM)", "number of time points": 0}, {"smiles": "COc1cc(/C=C/c2ccc(NC(=O)/C=C/c3cc(OC)c(OC)c(OC)c3)cc2)cc(OC)c1", "note": "(2.5 µM)", "number of time points": 0}, {"smiles": "O=C(N=c1sccn1Cc1ccccc1)c1c[nH]c2ncccc12", "note": "(10 µM)", "number of time points": 0}, {"smiles": "C=CCN(/C=C1/C(=O)O[C@H](COC)[C@@]2(C)C1=C(O)C(=O)C1=C2[C@H](OC(C)=O)C[C@]2(C)C(=O)CC[C@@H]12)CC=C", "note": "[Sonolisib] (2.5 µM)", "number of time points": 0}, {"smiles": "CC(C)(C)c1ccc(C(=O)Nc2cn3cc(-n4ccnc4)ccc3n2)cc1", "note": "(10 µM)", "number of time points": 0}, {"smiles": "C[C@@]12CCc3occc3[C@H]1CC[C@@]13C[C@@H](CC[C@H]12)[C@@](O)(CO)C3", "note": "[Cafestol] (10 µM)", "number of time points": 0}, {"smiles": "O=S(=O)(c1cccc2c(Cl)cccc12)N1CCCNCC1", "note": "(10 µM)", "number of time points": 0}, {"smiles": "Oc1ccc2ccccc2c1SSc1c(O)ccc2ccccc12", "note": "(10 µM)", "number of time points": 0}, {"smiles": "COc1cc(Nc2nc3ccccc3nc2NS(=O)(=O)c2ccc(NC(=O)c3ccc(C)c(OC)c3)cc2)cc(OC)c1", "note": "(10 µM)", "number of time points": 0}]}]}
